For 42 sequences, binding signal results are on record in PMC7819943, “Rice protein-binding microarrays: a tool to detect cis-acting elements near promoter regions in rice”.

The list shows a part of the results.

In the experiment the target is T1, OsSMF1 (Oryza sativa, UniProt Q6ZLB0 1-436).
T1 sequence: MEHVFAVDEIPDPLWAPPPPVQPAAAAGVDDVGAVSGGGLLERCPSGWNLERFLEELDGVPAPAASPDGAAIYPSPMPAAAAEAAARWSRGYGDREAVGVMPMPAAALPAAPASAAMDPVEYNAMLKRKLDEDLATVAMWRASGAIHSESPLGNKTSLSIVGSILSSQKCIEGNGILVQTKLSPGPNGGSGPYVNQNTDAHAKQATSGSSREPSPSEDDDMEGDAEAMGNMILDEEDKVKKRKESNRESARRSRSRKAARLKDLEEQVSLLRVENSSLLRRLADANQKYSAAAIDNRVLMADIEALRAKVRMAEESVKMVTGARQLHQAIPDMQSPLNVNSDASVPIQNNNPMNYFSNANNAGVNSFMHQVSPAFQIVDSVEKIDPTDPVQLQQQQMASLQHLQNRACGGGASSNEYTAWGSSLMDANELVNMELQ
The experiment can be described thus: protein-binding microarray (RPBM); PBS, 2% BSA, 51.3 ng/ul salmon testes DNA, 50 uM zinc acetate, 200 nM TF, 25 C, 1 h; high values mean tight binding. Conditions: protein: recombinant; tags: N-terminal polyhistidine and DsRed monomer fusion (pET32a); chain copies: 2; label: CyDye5-dUTP incorporated in the synthesized complementary strand; 3' TTTTT single-stranded linker to array surface; dsDNA, one strand shown. In outline: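 Binding signal here means per-feature fluorescence intensity in arbitrary units. The values were read on an Axon 4000B scanner after a custom Agilent array, double-stranded by primer extension with Cy5-dUTP, was incubated with 200 nM protein at 25 °C for 1 h in PBS with 2% BSA, salmon testes DNA and 50 µM zinc acetate, then washed. The proteins were transcription factors with an N-terminal polyhistidine tag and DsRed, expressed in E. coli BL21-CodonPlus and purified on Ni–NTA.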
Regarding “GACCTAGCTAAAGTGTTCTTTTGTTGATGTATTTCCAATCCGGAGTCACCTAGTGCAG”, the binding signal was 3260 fluorescence intensity (a.u.).

With “ATACTATTAAACCTGCTCTTATAAAGGTCAGACATCATGCCGGAGTCACCTAGTGCAG”, the binding signal is 3200 fluorescence intensity (a.u.).

With “TAGGAATTAAGCCACATATTTTGGCCAGGCGATGACGGAACGGAGTCACCTAGTGCAG”, the binding signal is 3300 fluorescence intensity (a.u.).

For the sequence “AACGAGTGAAGCTCACTGCGGCTAGCTGCTGTCTTGTGTTCGGAGTCACCTAGTGCAG”, the binding signal was 3380 fluorescence intensity (a.u.).

Take “TGGTGTTGTTGGTGTCGTCTTGTTCTTGTTTGTGTTTTCTCGGAGTCACCTAGTGCAG”: the binding signal is 3310 fluorescence intensity (a.u.).

For the sequence “TGAAAAGTGAAAACCGGTTTTCCACAGGTGATCTCTGAAACGGAGTCACCTAGTGCAG”, the binding signal was 24500 fluorescence intensity (a.u.).

“GTGCTCTGGAGGAGTTTGGTCTCGATCATCATCTCTCTGACGGAGTCACCTAGTGCAG”: the binding signal is 3420 fluorescence intensity (a.u.).

As to “TGTCACTGTTGCTGTCGTTGGCAGGGAATTTGGTGATTCACGGAGTCACCTAGTGCAG”, the binding signal is 4490 fluorescence intensity (a.u.).

On to “GCACCTCGCAATATCCATGGTCCCCGCTGCCCGTGGACTCCGGAGTCACCTAGTGCAG”, for which the binding signal was 41200 fluorescence intensity (a.u.).

As to “TCATTCAATATTTACTCGATCGTCATCCATCTCTAAACACCGGAGTCACCTAGTGCAG”, the binding signal is 3270 fluorescence intensity (a.u.).

For “CATCAAAATCGTTGTCTGACTCGGTCTCTTCTAGCTCGCGCGGAGTCACCTAGTGCAG”, the binding signal is 5070 fluorescence intensity (a.u.).

As to “ATTCTATGCCAGTGTGACTCGATTTGTGTGTGTCGCAATGCGGAGTCACCTAGTGCAG”, the binding signal is 4640 fluorescence intensity (a.u.).

As for “GATTGTGTCGCCCACCGCCTCGTCGACATCTGCACGTCTCCGGAGTCACCTAGTGCAG”, the binding signal is 4150 fluorescence intensity (a.u.).

Take “CCACAAACATGCAAGACCAAATTCAACTTCTACAAGTTGTCGGAGTCACCTAGTGCAG”: the binding signal is 13900 fluorescence intensity (a.u.).

Take “GGCCGTCTCTTCTGCGGCGGCGGCGGCGGAGATCCGGCAACGGAGTCACCTAGTGCAG”: the binding signal was 25300 fluorescence intensity (a.u.).

For the sequence “CGTGCCAATAGCCGTAGTTGAGAGGGACAAGGGAGTTTGGCGGAGTCACCTAGTGCAG”, the binding signal was 34800 fluorescence intensity (a.u.).

Turning to “AGGAACGACACTGAACCGTTCCACTCCATGGCAGAAATCTCGGAGTCACCTAGTGCAG”, the binding signal is 6450 fluorescence intensity (a.u.).

On to “TTCCCAGCCCACCACGTCCTCTCTGGCTTCATGTAACATCCGGAGTCACCTAGTGCAG”, for which the binding signal was 4010 fluorescence intensity (a.u.).

As for “CATTGCCATGCCTATGCGTTTGTAACAGAATTTAGAGGAGCGGAGTCACCTAGTGCAG”, the binding signal is 16300 fluorescence intensity (a.u.).

With “GCATGCCCATGCAAAACCAGCTCAGCTCACTACACTACACCGGAGTCACCTAGTGCAG”, the binding signal is 3250 fluorescence intensity (a.u.).

For “CCCCTCAAGGGATGACTGGACTTTTCCAAATGACGAATTTCGGAGTCACCTAGTGCAG”, the binding signal was 3290 fluorescence intensity (a.u.).

In the case of “ACCACCAGTAGAAGTAAAACCGCGGGGCCCACGTGTAGGCCGGAGTCACCTAGTGCAG”, the binding signal is 5330 fluorescence intensity (a.u.).

“CCCACCATTGCCGCCGTGTCCGGCAACCTAACGAACCTCGCGGAGTCACCTAGTGCAG”: the binding signal is 4100 fluorescence intensity (a.u.).

Take “CTGAACACACAGCAGGCTCACGTAGGCCACGCCACCTCACCGGAGTCACCTAGTGCAG”: the binding signal was 4450 fluorescence intensity (a.u.).

In the case of “TAACACTAGAATGATTCAGACAGGCCAAGCCTCCCAAGGTCGGAGTCACCTAGTGCAG”, the binding signal is 3190 fluorescence intensity (a.u.).

Consider “ACATAGCAGCAGGCGGCGACCTCGGTTTACGGAAAGTCAACGGAGTCACCTAGTGCAG”, for which the binding signal was 24600 fluorescence intensity (a.u.).

As to “CCACGCGTCGTCGACGTACTGCGCGATGACGGCGGACTCGCGGAGTCACCTAGTGCAG”, the binding signal was 4700 fluorescence intensity (a.u.).

For “CTTGCCGCAGCGCCTGCGAGGCGTTCGGCCGACCTGAGTACGGAGTCACCTAGTGCAG”, the binding signal was 29500 fluorescence intensity (a.u.).

For the sequence “TTGTCGTCCACGCCGCCATCTCCTTGGTCATCCGCAACAACGGAGTCACCTAGTGCAG”, the binding signal was 3430 fluorescence intensity (a.u.).

With “GTGTTGTGTCGGGTGGTATGTTATTTACTCGTGTTGAGTTCGGAGTCACCTAGTGCAG”, the binding signal is 3500 fluorescence intensity (a.u.).

Consider “CCAGGCTACCGGATCCGGTGACCCCGACCGCACTGCGGCGCGGAGTCACCTAGTGCAG”, for which the binding signal was 3950 fluorescence intensity (a.u.).

With “TTTATAGACACTTTAGCTGACTGTTGGAGTGGAATAATACCGGAGTCACCTAGTGCAG”, the binding signal is 3280 fluorescence intensity (a.u.).

“TGGATCGAACACACATACGTGGCAACCAAGTCTTCTGCTCCGGAGTCACCTAGTGCAG”: the binding signal is 12600 fluorescence intensity (a.u.).

For “GCGCGGAGGCGTTCAGGAACGCGGACTTGGTGACGAAGTGCGGAGTCACCTAGTGCAG”, the binding signal is 4480 fluorescence intensity (a.u.).

As to “GTGGGTGCTCTCATGGTGAGAGATTACGTGGAGAAATGAGCGGAGTCACCTAGTGCAG”, the binding signal was 4690 fluorescence intensity (a.u.).

For “CTCGTTTCTCCTACCTTTGGCCTGCCCATTAATGGCCCCTCGGAGTCACCTAGTGCAG”, the binding signal is 3400 fluorescence intensity (a.u.).

In the case of “GTACGTCGCCGCGCTCTTGGAGCTTGGTCAACCCTCGGCACGGAGTCACCTAGTGCAG”, the binding signal is 3270 fluorescence intensity (a.u.).

For the sequence “GCCATCGCCGCCCTGAAGCCCCAATCCAGGGCGGCCTCCCCGGAGTCACCTAGTGCAG”, the binding signal was 3810 fluorescence intensity (a.u.).

Turning to “CAACACTTTATCCATGTATATCATGCTGTTTCATTACATTCGGAGTCACCTAGTGCAG”, the binding signal is 4400 fluorescence intensity (a.u.).

Turning to “ATTTGGTTGTCAGCGTGGCGTCACAACTCTGGGCCGTTGCCGGAGTCACCTAGTGCAG”, the binding signal is 8720 fluorescence intensity (a.u.).

“GCAGCAATATAATGGCGACGGCGGCGAGGCTGCTCCTCCTCGGAGTCACCTAGTGCAG”: the binding signal is 29800 fluorescence intensity (a.u.).

For “AGTGTCATACTCTGCTCATGACATCATACTGTTATCAAGTCGGAGTCACCTAGTGCAG”, the binding signal was 3340 fluorescence intensity (a.u.).
